Experimental data as given in the supplement of paper PMC10849652.
Some of the results follow.

The chains behind the UniProt entries cited, without tags or fusion partners. Where a name states a change or a piece, a line headed by the entry shows the natural chain unless it says otherwise.
UniProt Q9NUN5: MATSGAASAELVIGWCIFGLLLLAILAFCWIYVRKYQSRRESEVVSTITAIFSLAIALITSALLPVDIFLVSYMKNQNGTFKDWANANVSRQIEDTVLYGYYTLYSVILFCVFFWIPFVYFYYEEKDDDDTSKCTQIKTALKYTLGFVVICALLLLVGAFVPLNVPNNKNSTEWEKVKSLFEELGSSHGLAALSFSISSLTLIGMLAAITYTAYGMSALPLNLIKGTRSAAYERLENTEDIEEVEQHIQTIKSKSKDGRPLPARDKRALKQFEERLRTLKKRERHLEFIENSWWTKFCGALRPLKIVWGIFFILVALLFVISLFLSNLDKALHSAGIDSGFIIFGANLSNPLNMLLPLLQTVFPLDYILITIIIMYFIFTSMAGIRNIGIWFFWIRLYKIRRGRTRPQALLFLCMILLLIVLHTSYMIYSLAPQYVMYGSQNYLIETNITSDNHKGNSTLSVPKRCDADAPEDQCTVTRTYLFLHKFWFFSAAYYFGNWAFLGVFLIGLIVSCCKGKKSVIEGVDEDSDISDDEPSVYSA
UniProt Q9BU23: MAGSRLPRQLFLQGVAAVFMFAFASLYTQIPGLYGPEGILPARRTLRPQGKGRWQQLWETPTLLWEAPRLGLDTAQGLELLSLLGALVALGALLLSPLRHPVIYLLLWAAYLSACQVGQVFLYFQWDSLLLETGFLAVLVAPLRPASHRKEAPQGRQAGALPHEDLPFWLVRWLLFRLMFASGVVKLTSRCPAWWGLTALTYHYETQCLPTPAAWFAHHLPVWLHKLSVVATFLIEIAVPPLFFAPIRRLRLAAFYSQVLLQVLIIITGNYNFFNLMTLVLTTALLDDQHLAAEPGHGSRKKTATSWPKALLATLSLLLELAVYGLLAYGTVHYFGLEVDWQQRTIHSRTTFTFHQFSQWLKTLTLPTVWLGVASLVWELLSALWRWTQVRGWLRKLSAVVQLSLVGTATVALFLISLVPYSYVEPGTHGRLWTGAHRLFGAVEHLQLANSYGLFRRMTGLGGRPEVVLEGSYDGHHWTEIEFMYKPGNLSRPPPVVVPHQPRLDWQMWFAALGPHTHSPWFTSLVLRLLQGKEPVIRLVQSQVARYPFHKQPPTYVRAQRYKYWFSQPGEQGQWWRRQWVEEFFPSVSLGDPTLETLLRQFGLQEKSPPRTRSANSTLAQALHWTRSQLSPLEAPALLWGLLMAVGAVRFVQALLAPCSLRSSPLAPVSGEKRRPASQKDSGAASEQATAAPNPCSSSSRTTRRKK
UniProt P18858, whole entry, looked up: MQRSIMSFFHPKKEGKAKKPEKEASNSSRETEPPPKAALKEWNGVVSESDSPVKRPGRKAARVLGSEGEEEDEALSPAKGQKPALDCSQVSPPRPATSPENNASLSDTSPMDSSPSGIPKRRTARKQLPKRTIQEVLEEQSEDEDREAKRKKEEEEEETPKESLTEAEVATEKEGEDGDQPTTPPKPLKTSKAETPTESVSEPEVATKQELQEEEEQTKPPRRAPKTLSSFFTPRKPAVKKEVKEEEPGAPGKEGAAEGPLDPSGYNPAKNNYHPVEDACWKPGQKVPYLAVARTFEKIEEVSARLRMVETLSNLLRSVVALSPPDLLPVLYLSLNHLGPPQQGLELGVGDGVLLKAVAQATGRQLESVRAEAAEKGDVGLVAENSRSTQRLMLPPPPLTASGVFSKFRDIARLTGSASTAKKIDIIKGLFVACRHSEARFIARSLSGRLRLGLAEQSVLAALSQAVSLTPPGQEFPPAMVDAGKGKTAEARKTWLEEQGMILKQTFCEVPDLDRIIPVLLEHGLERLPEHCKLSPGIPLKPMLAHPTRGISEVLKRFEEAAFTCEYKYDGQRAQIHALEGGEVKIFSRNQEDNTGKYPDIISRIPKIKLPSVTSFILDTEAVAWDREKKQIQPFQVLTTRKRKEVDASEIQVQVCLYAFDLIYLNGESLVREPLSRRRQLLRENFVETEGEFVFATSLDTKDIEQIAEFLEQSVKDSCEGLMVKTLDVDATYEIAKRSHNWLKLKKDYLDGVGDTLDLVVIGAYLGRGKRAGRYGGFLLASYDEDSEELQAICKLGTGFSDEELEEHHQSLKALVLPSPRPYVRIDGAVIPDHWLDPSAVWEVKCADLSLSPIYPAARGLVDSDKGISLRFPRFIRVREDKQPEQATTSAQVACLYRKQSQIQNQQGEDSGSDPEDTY
UniProt P53667: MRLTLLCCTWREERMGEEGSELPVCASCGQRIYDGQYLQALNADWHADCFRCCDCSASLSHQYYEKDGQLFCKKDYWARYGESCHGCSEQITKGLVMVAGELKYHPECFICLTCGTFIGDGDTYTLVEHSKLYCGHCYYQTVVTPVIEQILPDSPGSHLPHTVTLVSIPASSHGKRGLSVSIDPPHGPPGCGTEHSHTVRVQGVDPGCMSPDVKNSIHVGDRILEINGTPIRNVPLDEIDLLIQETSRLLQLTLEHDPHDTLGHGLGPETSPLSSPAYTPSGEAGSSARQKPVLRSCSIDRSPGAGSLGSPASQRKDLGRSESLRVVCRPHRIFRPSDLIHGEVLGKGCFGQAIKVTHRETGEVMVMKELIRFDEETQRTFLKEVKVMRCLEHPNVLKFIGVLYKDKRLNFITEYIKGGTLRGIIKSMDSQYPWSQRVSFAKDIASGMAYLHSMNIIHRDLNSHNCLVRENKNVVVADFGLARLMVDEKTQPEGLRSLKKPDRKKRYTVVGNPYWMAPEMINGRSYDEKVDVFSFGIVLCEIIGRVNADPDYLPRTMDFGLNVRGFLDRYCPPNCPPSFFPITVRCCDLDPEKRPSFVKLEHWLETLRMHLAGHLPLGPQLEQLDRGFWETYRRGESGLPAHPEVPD
UniProt Q9H089: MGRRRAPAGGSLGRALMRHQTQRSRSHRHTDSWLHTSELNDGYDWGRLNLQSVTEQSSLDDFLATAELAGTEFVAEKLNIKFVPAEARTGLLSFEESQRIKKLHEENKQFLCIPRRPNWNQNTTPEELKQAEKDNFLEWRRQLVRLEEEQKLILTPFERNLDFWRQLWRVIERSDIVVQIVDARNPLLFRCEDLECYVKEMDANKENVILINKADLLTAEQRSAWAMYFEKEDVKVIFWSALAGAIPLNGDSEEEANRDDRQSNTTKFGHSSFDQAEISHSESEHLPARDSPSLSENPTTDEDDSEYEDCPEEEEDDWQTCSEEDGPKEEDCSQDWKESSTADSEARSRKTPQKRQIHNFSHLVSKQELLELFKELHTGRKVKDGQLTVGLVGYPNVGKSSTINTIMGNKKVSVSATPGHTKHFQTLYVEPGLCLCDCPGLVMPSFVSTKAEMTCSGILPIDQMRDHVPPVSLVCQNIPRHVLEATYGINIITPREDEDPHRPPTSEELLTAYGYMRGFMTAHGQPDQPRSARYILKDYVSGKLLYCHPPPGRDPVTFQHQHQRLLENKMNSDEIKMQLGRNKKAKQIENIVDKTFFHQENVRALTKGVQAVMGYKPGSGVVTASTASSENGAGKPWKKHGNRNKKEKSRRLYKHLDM
UniProt Q96NW7: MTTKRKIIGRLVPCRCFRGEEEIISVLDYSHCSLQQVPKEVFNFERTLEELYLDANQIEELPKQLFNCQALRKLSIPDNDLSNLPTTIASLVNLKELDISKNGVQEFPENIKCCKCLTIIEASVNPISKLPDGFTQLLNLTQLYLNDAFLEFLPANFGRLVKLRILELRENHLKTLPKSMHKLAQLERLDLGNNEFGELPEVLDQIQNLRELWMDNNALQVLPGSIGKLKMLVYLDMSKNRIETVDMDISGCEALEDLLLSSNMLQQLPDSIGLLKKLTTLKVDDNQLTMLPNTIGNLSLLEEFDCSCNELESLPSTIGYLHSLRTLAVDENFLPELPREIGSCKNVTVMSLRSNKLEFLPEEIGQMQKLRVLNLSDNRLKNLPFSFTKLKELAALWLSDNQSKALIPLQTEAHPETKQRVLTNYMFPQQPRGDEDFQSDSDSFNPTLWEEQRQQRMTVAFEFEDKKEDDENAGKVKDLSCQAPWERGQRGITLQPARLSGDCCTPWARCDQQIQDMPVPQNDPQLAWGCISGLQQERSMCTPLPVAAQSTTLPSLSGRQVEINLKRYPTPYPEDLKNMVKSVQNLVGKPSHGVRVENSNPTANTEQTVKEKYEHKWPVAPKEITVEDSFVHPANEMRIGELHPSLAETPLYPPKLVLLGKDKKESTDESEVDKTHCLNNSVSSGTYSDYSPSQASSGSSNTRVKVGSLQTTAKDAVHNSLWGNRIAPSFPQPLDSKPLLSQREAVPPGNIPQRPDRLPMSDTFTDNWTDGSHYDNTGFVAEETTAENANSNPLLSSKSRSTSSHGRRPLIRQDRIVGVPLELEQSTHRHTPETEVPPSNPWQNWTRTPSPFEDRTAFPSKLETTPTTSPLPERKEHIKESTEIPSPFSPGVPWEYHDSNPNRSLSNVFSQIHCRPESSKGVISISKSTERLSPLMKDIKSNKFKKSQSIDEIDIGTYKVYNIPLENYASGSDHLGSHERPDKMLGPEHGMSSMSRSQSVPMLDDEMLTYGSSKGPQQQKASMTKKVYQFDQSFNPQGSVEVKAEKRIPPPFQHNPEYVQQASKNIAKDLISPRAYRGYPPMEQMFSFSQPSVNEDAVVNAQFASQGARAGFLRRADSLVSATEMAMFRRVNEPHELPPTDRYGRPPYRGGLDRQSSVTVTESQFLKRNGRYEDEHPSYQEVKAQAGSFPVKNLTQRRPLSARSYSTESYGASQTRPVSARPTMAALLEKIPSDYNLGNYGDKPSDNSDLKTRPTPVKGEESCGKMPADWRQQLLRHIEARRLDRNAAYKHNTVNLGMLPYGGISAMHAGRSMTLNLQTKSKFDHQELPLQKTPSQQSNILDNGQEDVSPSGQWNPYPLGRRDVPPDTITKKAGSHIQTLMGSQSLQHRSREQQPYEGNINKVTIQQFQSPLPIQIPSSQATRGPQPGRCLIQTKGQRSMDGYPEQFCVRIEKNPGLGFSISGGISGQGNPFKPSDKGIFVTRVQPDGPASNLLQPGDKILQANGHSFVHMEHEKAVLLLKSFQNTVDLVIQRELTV
UniProt Q9BQK8: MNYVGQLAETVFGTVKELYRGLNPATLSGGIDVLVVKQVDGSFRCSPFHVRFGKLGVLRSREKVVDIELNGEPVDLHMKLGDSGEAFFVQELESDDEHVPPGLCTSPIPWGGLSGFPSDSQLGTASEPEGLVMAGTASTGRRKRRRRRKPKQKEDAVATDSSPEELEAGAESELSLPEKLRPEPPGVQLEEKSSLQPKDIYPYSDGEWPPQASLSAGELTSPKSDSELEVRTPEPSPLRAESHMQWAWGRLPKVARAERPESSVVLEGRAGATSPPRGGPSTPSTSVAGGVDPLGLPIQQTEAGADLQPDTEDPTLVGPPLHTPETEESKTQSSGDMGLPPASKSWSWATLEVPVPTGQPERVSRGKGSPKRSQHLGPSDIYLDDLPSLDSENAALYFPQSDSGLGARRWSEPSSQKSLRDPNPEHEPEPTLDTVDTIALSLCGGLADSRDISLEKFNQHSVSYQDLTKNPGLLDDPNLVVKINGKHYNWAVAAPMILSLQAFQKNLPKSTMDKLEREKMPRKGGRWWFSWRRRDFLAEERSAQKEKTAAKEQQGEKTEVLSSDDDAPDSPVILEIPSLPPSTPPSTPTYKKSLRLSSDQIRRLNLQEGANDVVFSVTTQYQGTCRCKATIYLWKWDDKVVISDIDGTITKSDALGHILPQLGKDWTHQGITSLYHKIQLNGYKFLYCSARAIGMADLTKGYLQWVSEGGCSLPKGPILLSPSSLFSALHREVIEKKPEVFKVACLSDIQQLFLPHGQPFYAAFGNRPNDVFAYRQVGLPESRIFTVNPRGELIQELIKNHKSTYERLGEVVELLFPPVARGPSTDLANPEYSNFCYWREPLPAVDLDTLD
UniProt Q9UK45: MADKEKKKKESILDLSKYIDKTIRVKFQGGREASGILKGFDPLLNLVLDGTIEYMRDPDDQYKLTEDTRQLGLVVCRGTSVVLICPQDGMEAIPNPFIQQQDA
UniProt Q9Y4Y9: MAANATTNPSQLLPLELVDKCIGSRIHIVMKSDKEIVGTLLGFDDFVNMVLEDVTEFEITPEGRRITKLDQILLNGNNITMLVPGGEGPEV
UniProt Q8NF37: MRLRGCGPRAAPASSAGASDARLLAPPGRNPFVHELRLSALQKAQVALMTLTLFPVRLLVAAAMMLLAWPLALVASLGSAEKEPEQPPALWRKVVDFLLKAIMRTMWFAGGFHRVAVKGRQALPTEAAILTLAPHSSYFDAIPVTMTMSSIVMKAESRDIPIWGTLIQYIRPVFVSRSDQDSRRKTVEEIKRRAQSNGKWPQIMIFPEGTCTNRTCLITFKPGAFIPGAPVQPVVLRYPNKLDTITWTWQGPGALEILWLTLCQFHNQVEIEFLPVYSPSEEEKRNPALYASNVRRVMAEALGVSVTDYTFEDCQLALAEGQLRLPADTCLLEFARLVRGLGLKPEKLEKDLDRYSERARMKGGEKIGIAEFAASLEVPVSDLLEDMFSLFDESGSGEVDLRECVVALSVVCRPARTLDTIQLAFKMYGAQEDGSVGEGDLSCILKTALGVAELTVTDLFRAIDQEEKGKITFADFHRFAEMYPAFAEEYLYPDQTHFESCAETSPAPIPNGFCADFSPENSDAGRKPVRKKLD

Experiments:
Experiment in all cases: log2 fold change, soluble protein after heating vs DMSO (PISA); higher = thermal stabilisation; K562 lysate, 10 uM; active = over 0.2 and 3.5 SD of the protein, either way, in both replicates (recomputed)
[1] = compound: C1=CC=C(C=C1)[C@H](COC2=CC3=C(C=C2)NC(=O)N3)NC(=O)C4=CC=CN(C4=O)CC5=CC(=C(C=C5)F)F
Outline: (§1)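 Pellets of K562 cells were dounce-homogenised in PBS pH 7.4 with 1 mM MgCl2, and the crude extract was held at 1 mg/mL protein for a 30 min treatment with 10 μM compound. Aliquots were heated for 3 min over 48°C-58°C and pooled before NP-40 was added to 0.5% at 4°C. The supernatant from 21,000xg for 90 min was quantified by TMTpro 16plex LC-MS/MS with channel sums equalised. Values are reported from duplicates as log-two fold change in thermal stability relative to solvent controls.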

[2] = compound: CC1=C(SC2=C1C(=N[C@H](C3=NN=C(N32)C)CC(=O)N)C4=CC=C(C=C4)Cl)C
Outline: as §1

[3] = compound: CC1=C2C(=CC=C1)N=C(N(C2=O)C3=CC=CC=C3C)CN4C=NC5=C(N=CN=C54)N
Outline: as §1

[4] = compound: Cc1sc2c(c1C)C(c1ccc(Cl)cc1)=N[C@@H](CC(=O)OC(C)(C)C)c1nnc(C)n1-2
Outline: as §1

[5] = compound: c1ccc([C@@H]2C[C@H]2NC2CCNCC2)cc1
Outline: as §1

Measured: log2 fold change

LRPAP1 (UniProt P30533)
inactive: [1] 0.055 | [2] -0.027 | [3] -0.02 | [4] 0.053 | [5] 0.084

LSS (UniProt P48449)
inactive: [1] 0.016 | [2] -0.083 | [3] 0.014 | [4] -0.012 | [5] -0.007

LMBRD1 (UniProt Q9NUN5)
inactive: [1] 0.099 | [2] -0.065 | [3] -0.009 | [4] -0.155 | [5] -0.001

LMF2 (UniProt Q9BU23)
inactive: [1] -0.033 | [2] 0.033 | [3] 0.046 | [4] 0.005 | [5] -0.089

LAS1L (UniProt Q9Y4W2)
inactive: [1] -0.002 | [2] 0 | [3] -0.023 | [4] 0.02 | [5] -0.026

LIG1 (UniProt P18858)
inactive: [1] 0 | [2] 0.02 | [3] 0.016 | [4] -0.004 | [5] 0.017

LIMK1 (UniProt P53667)
inactive: [1] 0.007 | [2] -0.015 | [3] -0.07 | [4] -0.024 | [5] 0.007

LASP1 (UniProt Q14847)
inactive: [1] 0.002 | [2] -0.004 | [3] -0.009 | [4] 0.006 | [5] -0.008

LARS2 (UniProt Q15031)
inactive: [1] -0.07 | [2] -0.072 | [3] -0.019 | [4] 0.066 | [5] 0.064

LHPP (UniProt Q9H008)
inactive: [1] 0.061 | [2] -0.121 | [3] -0.108 | [4] -0.037 | [5] -0.018

LRRC8B (UniProt Q6P9F7)
inactive: [1] -0.028 | [2] -0.02 | [3] -0.219 | [4] 0.076 | [5] -0.022

LSG1 (UniProt Q9H089)
inactive: [1] 0.068 | [2] 0.038 | [3] 0.084 | [4] -0.028 | [5] -0.044

LRRC7 (UniProt Q96NW7)
inactive: [1] -0.001 | [2] -0.047 | [3] -0.309 | [4] 0 | [5] -0.001

LGALS1 (UniProt P09382)
inactive: [1] 0.02 | [2] -0.082 | [3] -0.001 | [4] -0.031 | [5] -0.111

LPIN3 isoform 2 (UniProt Q9BQK8)
inactive: [1] -0.018 | [2] 0.091 | [3] 0.06 | [4] -0.001 | [5] 0.134

LETMD1 isoform 7 (UniProt Q6P1Q0)
inactive: [1] -0.058 | [2] 0.003 | [3] -0.091 | [4] 0.027 | [5] -0.003

LNPEP (UniProt Q9UIQ6)
inactive: [1] 0.024 | [2] -0.028 | [3] 0.003 | [4] -0.019 | [5] -0.012

LINGO1 (UniProt Q96FE5)
inactive: [1] -0.116 | [2] 0.085 | [3] 0.005 | [4] -0.009 | [5] 0.052

LBR (UniProt Q14739)
inactive: [1] -0.018 | [2] 0.045 | [3] 0.04 | [4] 0.007 | [5] 0.117

LMNB2 (UniProt Q03252)
inactive: [1] 0.041 | [2] 0.009 | [3] -0.075 | [4] 0.097 | [5] 0.006

LSM7 (UniProt Q9UK45)
inactive: [1] 0.066 | [2] -0.001 | [3] -0.044 | [4] -0.013 | [5] -0.143

LSM5 (UniProt Q9Y4Y9)
inactive: [1] -0.004 | [2] -0.088 | [3] 0.106 | [4] 0.148 | [5] 0.116

LETM1 (UniProt O95202)
inactive: [1] 0.006 | [2] -0.017 | [3] 0.002 | [4] 0.042 | [5] -0.053

Random excerpt: 2 records from the list, in no set order.
LETM1 (UniProt O95202)
inactive: [1] 0.006 | [2] -0.017 | [3] 0.002 | [4] 0.042 | [5] -0.053

LSM5 (UniProt Q9Y4Y9)
inactive: [1] -0.004 | [2] -0.088 | [3] 0.106 | [4] 0.148 | [5] 0.116

More entries.

LPCAT1 (UniProt Q8NF37)
inactive: [1] -0.071 | [2] 0.056 | [3] 0.066 | [4] 0 | [5] -0.115
